Like-named read-outs stand apart in the source and are kept apart here. Some entries share one result that the patent states for a list of compounds.
Biological target: T1, Amaranthus tuberculantum Protoporphyrinogen Oxidase (AmPPO) (Amaranthus tuberculatus, UniProt Q0NZW9)
T1 construct: fused on or other part: C-terminal His tag (pET28b vector)
T1 sequence (Q0NZW9 1-534): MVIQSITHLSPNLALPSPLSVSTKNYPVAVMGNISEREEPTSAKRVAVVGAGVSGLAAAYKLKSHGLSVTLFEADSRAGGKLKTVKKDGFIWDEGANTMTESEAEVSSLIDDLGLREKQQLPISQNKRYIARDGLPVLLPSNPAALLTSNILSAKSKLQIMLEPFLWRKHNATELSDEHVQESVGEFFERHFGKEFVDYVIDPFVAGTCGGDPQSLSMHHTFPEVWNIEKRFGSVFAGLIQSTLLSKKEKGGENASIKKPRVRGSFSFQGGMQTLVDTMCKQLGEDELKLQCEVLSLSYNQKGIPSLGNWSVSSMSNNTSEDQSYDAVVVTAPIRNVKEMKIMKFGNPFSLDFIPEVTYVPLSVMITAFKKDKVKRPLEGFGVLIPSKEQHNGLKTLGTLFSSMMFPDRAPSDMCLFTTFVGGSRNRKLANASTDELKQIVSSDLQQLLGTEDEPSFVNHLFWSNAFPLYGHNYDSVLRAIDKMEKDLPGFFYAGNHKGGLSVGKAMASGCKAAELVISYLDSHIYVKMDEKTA
Test: PPO in vitro assay (AmPPO)
Type: biochemical

Structure (SMILES)	IC50 [nM]	IC50 (Example 17b) [nM]
O=C(O)C(F)(F)CN1C(=O)C(F)(F)Oc2cc(F)c(-c3c(F)c(F)c(F)c(F)c3F)cc21 [Compound 47, 2,2-difluoro-3-(2,2,7-trifluoro-3-oxo-6-(perfluorophenyl)-2,3-dihydro-4H-benzo[b][1,4]oxazin-4-yl)propanoic acid]	< 100	< 100
COC(=O)CN1C(=O)C(F)(F)Oc2cc(F)c(-c3cc(F)c(F)c(F)c3F)cc21 [Compound 158, methyl 2-(2,2,7-trifluoro-3-oxo-6-(2,3,4,5-tetrafluorophenyl)-2,3-dihydro-4H-benzo[b][1,4]oxazin-4-yl)acetate]	–	< 100
CC(C)(C(=O)O)N1C(=O)C(F)(F)Oc2cc(F)c(-c3c(F)c(F)c(F)c(F)c3F)cc21 [Compound 19, 2-methyl-2-(2,2,7-trifluoro-3-oxo-6-(perfluorophenyl)-2,3-dihydro-4H-benzo[b][1,4]oxazin-4-yl)propanoic acid]	< 100	< 100
COC(=O)C[C@H]1C[C@H](CN2C(=O)C(F)(F)Oc3cc(F)c(-c4c(F)c(F)c(F)c(F)c4F)cc32)C1 [Compound 136, methyl 2-((1r,3r)-3-((2,2,7-trifluoro-3-oxo-6-(perfluorophenyl)-2,3-dihydro-4H-benzo[b][1,4]oxazin-4-yl)methyl)cyclobutyl)acetate]	< 100	< 100
COc1c(F)c(F)c(-c2cc3c(cc2F)OC(F)(F)C(=O)N3[C@@H](C)C(=O)O)c(F)c1F [Compound 113, (S)-2-(2,2,7-trifluoro-3-oxo-6-(2,3,5,6-tetrafluoro-4-methoxyphenyl)-2,3-dihydro-4H-benzo[b][1,4]oxazin-4-yl)propanoic acid]	< 100	< 100
CN(CCC(=O)O)C(=O)CN1C(=O)C(F)(F)Oc2cc(F)c(-c3c(F)cc(F)c(F)c3F)cc21 [Compound 163, 3-(N-methyl-2-(2,2,7-trifluoro-3-oxo-6-(2,3,4,6-tetrafluorophenyl)-2,3-dihydro-4H-benzo[b][1,4]oxazin-4-yl)acetamido)propanoic acid]	–	< 100
O=C(O)[C@@H]1CCCN1C(=O)CN1C(=O)C(F)(F)Oc2cc(F)c(-c3c(F)c(F)c(F)c(F)c3F)cc21 [Compound 75, (2-(2,2,7-trifluoro-3-oxo-6-(perfluorophenyl)-2,3-dihydro-4H-benzo[b II 1,4]oxazin-4-yl)acetyl)-L-proline]	< 100	< 100
COC(=O)C(C)N1C(=O)C(F)(F)Oc2cc(Cl)c(-c3c(F)c(F)c(F)c(F)c3F)cc21 (stereo in doubt) [Compound 170, methyl (S)-2-(7-chloro-2,2-difluoro-3-oxo-6-(perfluorophenyl)-2,3-dihydro-4H-benzo[b][1,4]oxazin-4-yl)propanoate]	–	< 100
C[C@H](C(=O)O)N1C(=O)C(F)(F)Oc2cc(F)c(-c3c(F)c(F)c(F)c(F)c3F)c(F)c21 [Compound 176, (R)-2-(2,2,5,7-tetrafluoro-3-oxo-6-(perfluorophenyl)-2,3-dihydro-4H-benzo[b][1,4]oxazin-4-yl)propanoic acid]	–	< 1000
COC(=O)c1cccc(CCN2C(=O)C(F)(F)Oc3cc(F)c(-c4c(F)c(F)c(F)c(F)c4F)cc32)c1 [Compound 142, methyl 3-(2-(2,2,7-trifluoro-3-oxo-6-(perfluorophenyl)-2,3-dihydro-4H-benzo[b][1,4]oxazin-4-yl)ethyl)benzoate]	< 100	< 100
COC(=O)CN1C(=O)C(F)(F)Oc2cc(F)c(-c3c(F)c(C)c(F)c(F)c3F)cc21 [Compound 60, methyl 2-(2,2,7-trifluoro-3-oxo-6-(2,3,4,6-tetrafluoro-5-methylphenyl)-2,3-dihydro-4H-benzo[b][1,4]oxazin-4-yl)acetate]	< 100	< 100
CCOC(=O)[C@H](C)N1C(=O)C(F)(F)Oc2cc(F)c(-c3c(F)c(F)c(F)c(F)c3F)cc21 [Compound 35, ethyl (S)-2-(2,2,7-trifluoro-3-oxo-6-(perfluorophenyl)-2,3-dihydro-H-benzo[b][1,4]oxazin-4-yl)propanoate]	< 100	< 100
C=C(CN1C(=O)C(F)(F)Oc2cc(F)c(-c3c(F)c(F)c(F)c(F)c3F)cc21)C(=O)OC [Compound 100, methyl 2-((2,2,7-trifluoro-3-oxo-6-(perfluorophenyl)-2,3-dihydro-4H-benzo[b][1,4]oxazin-4-yl)methyl)acrylate]	< 100	< 100
O=C(O)CN1C(=O)C(F)(F)Oc2cc(F)c(-c3c(F)c(F)c(F)c(F)c3F)c(F)c21 [Compound 155, 2-(2,2,5,7-tetrafluoro-3-oxo-6-(perfluorophenyl)-2,3-dihydro-4H-benzo[b][1,4]oxazin-4-yl)acetic acid]	–	< 1000
COC(=O)CN1C(=O)C(F)(F)Oc2cc(F)c(-c3c(F)c(F)c(OC)c(F)c3F)cc21 [Compound 103, methyl 2-(2,2,7-trifluoro-3-oxo-6-(2,3,5,6-tetrafluoro-4-methoxyphenyl)-2,3-dihydro-4H-benzo[b][1,4]oxazin-4-yl)acetate]	< 100	< 100
CN(C)S(=O)(=O)NC(=O)CN1C(=O)C(F)(F)Oc2cc(F)c(-c3c(F)cc(F)c(F)c3F)cc21 [Compound 93, N-(N,N-dimethylsulfamoyl)-2-(2,2,7-trifluoro-3-oxo-6-(2,3,4,6-tetrafluorophenyl)-2,3-dihydro-4H-benzo[b][1,4]oxazin-4-yl)acetamide]	< 100	< 100
COC(=O)C(C)N1C(=O)C(F)(F)Oc2cc(F)c(-c3c(F)c(F)c(F)c(F)c3F)c(F)c21 (stereo in doubt) [Compound 175, methyl (R)-2-(2,2,5,7-tetrafluoro-3-oxo-6-(perfluorophenyl)-2,3-dihydro-H-benzo[b][1,4]oxazin-4-yl)propanoate]	–	< 100
O=C(O)c1ccc(CN2C(=O)C(F)(F)Oc3cc(F)c(-c4c(F)c(F)c(F)c(F)c4F)cc32)cc1 [Compound 27, 4-((2,2,7-trifluoro-3-oxo-6-(perfluorophenyl)-2,3-dihydro-4H-benzo[b][1,4]oxazin-4-yl)methyl)benzoic acid]	< 100	< 100
O=C(O)CNC(=O)CN1C(=O)C(F)(F)Oc2cc(F)c(-c3c(F)c(F)c(F)c(F)c3F)cc21 [Compound 92, (2-(2,2,7-trifluoro-3-oxo-6-(perfluorophenyl)-2,3-dihydro-4H-benzo[b][1,4]oxazin-4-yl)acetyl)glycine]	< 100	< 100
CCC[C@H](C(=O)OC)N1C(=O)C(F)(F)Oc2cc(F)c(-c3c(F)c(F)c(F)c(F)c3F)cc21 [Compound 116, methyl (R)-2-(2,2,7-trifluoro-3-oxo-6-(perfluorophenyl)-2,3-dihydro-4H-benzo[b][1,4]oxazin-4-yl)pentanoate]	< 100	< 100
CC[C@@H](C(=O)O)N1C(=O)C(F)(F)Oc2cc(F)c(-c3c(F)c(F)c(F)c(F)c3F)cc21 [Compound 51, (S)-2-(2,2,7-trifluoro-3-oxo-6-(perfluorophenyl)-2,3-dihydro-4H-benzo[b][1,4]oxazin-4-yl)butanoic acid]	< 100	< 100
CC(C(=O)O)N1C(=O)C(F)(F)Oc2cc(Cl)c(-c3c(F)c(F)c(F)c(F)c3F)cc21 (stereo in doubt) [Compound 172, (S)-2-(7-chloro-2,2-difluoro-3-oxo-6-(perfluorophenyl)-2,3-dihydro-4H-benzo[b][1,4]oxazin-4-yl)propanoic acid]	–	< 1000
O=C(CN1C(=O)C(F)(F)Oc2cc(F)c(-c3c(F)c(F)c(F)c(F)c3F)cc21)NS(=O)(=O)C(F)(F)F [Compound 12, 2-(2,2,7-trifluoro-3-oxo-6-(perfluorophenyl)-2,3-dihydro-4H-benzo[b][1,4]oxazin-4-yl)N-((trifluoromethyl)sulfonyl)acetamide]	< 100	< 100
COC(=O)[C@H](C)N1C(=O)C(F)(F)Oc2cc(F)c(-c3c(F)c(F)c(F)c(F)c3F)cc21 [Compound 9, methyl (S)-2-(2,2,7-trifluoro-3-oxo-6-(perfluorophenyl)-2,3-dihydro-4H-benzo[b][1,4]oxazin-4-yl)propanoate]	< 100	< 100
C[C@H](C(=O)O)N1C(=O)C(F)(F)Oc2cc(F)c(-c3c(F)c(F)c(F)c(F)c3F)cc21 [Compound 10, (R)-2-(2,2,7-trifluoro-3-oxo-6-(perfluorophenyl)-2,3-dihydro-4H-benzo[b][1,4]oxazin-4-yl)propanoic acid]	< 100	< 100
COC(=O)[C@H](C)N1C(=O)C(F)(F)Oc2cc(F)c(-c3c(F)c(F)c(OC)c(F)c3F)cc21 [Compound 111]	< 100	< 100
COC(=O)[C@@H]1CCCN1C(=O)CN1C(=O)C(F)(F)Oc2cc(F)c(-c3c(F)c(F)c(F)c(F)c3F)cc21 [Compound 74, methyl (2-(2,2,7-trifluoro-3-oxo-6-(perfluorophenyl)-2,3-dihydro-4H-benzo[b][1,4]oxazin-4-yl)acetyl)-L-prolinate]	< 100	< 100
COC(=O)CN1C(=O)C(F)(F)Oc2cc(F)c(-c3c(F)c(F)cc(F)c3F)cc21 [Compound 6, methyl 2-(2,2,7-trifluoro-3-oxo-6-(2,3,5,6-tetrafluorophenyl)-2,3-dihydro-4H-benzo[b][1,4]oxazin-4-yl)acetate]	< 100	< 100

— US20250084044A1, “PROTOPORPHYRINOGEN OXIDASE INHIBITORS” (Enko Chem, Inc., priority 2022, published 2025)
